Experimental data published in patent US20240052061A1.
Results are given in words; binding and its absence hold for the method and conditions named. Some binding calls cover weakened binding; strength is not graded here.

T1: human ecto-nucleoside triphosphate diphosphohydrolase-3 (NTPDase3) (human) (UniProt O75355)
T1 sequence (looked up): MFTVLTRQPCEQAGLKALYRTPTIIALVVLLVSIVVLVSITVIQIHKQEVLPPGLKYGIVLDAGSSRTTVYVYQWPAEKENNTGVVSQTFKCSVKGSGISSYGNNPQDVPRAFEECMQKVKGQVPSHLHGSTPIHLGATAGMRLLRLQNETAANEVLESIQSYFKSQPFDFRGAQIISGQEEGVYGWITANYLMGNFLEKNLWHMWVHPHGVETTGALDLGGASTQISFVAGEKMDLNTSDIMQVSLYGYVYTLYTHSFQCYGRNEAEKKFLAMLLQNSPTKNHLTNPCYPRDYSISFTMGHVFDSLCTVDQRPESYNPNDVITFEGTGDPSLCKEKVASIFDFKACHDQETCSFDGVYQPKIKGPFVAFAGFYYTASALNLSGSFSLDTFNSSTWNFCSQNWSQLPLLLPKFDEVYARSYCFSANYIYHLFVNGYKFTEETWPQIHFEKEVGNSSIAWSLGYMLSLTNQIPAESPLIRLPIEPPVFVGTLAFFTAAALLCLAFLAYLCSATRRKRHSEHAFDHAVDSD


Columns and labels:
[1] = target: T1, human ecto-nucleoside triphosphate diphosphohydrolase-3 (NTPDase3) (human); test: flow cytometry on COS7-hENTPD3 cells (FIG. 30)
[2] = target: T1, human ecto-nucleoside triphosphate diphosphohydrolase-3 (NTPDase3) (human); test: Table 1, Binding Kinetics (Association Rate); flow cytometry on hENTPD3 cells
[3] = target: T1, human ecto-nucleoside triphosphate diphosphohydrolase-3 (NTPDase3) (human); test: stable immune complex assay, flow cytometry on COS7-hENTPD3 cells, 2 h against 24 h (FIG. 50)
[4] = target: T1, human ecto-nucleoside triphosphate diphosphohydrolase-3 (NTPDase3) (human); test: flow cytometry on CHO-hENTPD3 cells (FIG. 49)
[5] = target: T1, human ecto-nucleoside triphosphate diphosphohydrolase-3 (NTPDase3) (human); test: flow cytometry on COS7-hENTPD3 cells (FIG. 47)
[6] = target: T1, human ecto-nucleoside triphosphate diphosphohydrolase-3 (NTPDase3) (human); test: flow cytometry on COS7-hENTPD3 cells (FIG. 48)
[7] = target: T1, human ecto-nucleoside triphosphate diphosphohydrolase-3 (NTPDase3) (human); test: humanized clone against parental chimeric clone; flow cytometry on hENTPD3 cells
[8] = target: T1, human ecto-nucleoside triphosphate diphosphohydrolase-3 (NTPDase3) (human); test: flow cytometry on CHO-hENTPD3 cells, 20 min at 4 °C against 2 hours at 37 °C (FIG. 49)

binding [1] | binding [2] | binding [3] | binding [4] | binding [5] | binding [6] | binding [7] | binding [8] | Binder
binds | binds | binds |  |  |  |  |  | PBI #30af4 hIgG1 (antibody, V domains shown) VH: QVQLQESGGGLIQPGGSLRLSCAASGFTSSSSDYAMSWVRQAPGKGLEWVSSISGSGVSTYYADSVKGRFTISRDNSKNTLYVQMTSLTAEDTAVYYCAKVVGYSVYDYYYHYALDVWGQGTTVTVSS VL: QPVLTQPPSASGTPGQRVTISCSGSSSNIGSNTVNWYQQLPGTAPKLLIYSDNQRPSGVPDRFSGSKSGTSASLTISGLKTEDEAGYYCQSDDTSNVVFGGGTKVTVL
binds | binds |  |  |  |  |  |  | PBI #30af4 hIgG4 (antibody, V domains shown) VH: QVQLQESGGGLIQPGGSLRLSCAASGFTSSSSDYAMSWVRQAPGKGLEWVSSISGSGVSTYYADSVKGRFTISRDNSKNTLYVQMTSLTAEDTAVYYCAKVVGYSVYDYYYHYALDVWGQGTTVTVSS VL: QPVLTQPPSASGTPGQRVTISCSGSSSNIGSNTVNWYQQLPGTAPKLLIYSDNQRPSGVPDRFSGSKSGTSASLTISGLKTEDEAGYYCQSDDTSNVVFGGGTKVTVL
 | binds | binds | binds | binds | binds | binds | binds | 38D5 hIgG1 (antibody, V domains shown) VH: EQQLLESGGGLVQPGGSLRLSCAASGIDFNNYGISWVRQAPGKGLEWIAYKYPGFGIRNYANSVKGRFTISSDNSKNTVYLQMNSLRAEDTAVYFCARGARYRHDDYGALNLWGPGTLVTVSS VL: DIQMTQSPSTLSASVGDRVTITCQASQSVTNLLAWYQQKPGKPPKLLIYGASNLESGVPSRFSGSGSGTEFTLTISSLQPDDFATYYCQSGYYSANTFGPGTKVDIK
 | binds |  |  |  |  |  |  | 38D5 hIgG4 (antibody, V domains shown) VH: EQQLLESGGGLVQPGGSLRLSCAASGIDFNNYGISWVRQAPGKGLEWIAYKYPGFGIRNYANSVKGRFTISSDNSKNTVYLQMNSLRAEDTAVYFCARGARYRHDDYGALNLWGPGTLVTVSS VL: DIQMTQSPSTLSASVGDRVTITCQASQSVTNLLAWYQQKPGKPPKLLIYGASNLESGVPSRFSGSGSGTEFTLTISSLQPDDFATYYCQSGYYSANTFGPGTKVDIK
